# Test results reported in the supplement of paper PMC8728848.
# The other results are listed elsewhere or left out.
# B1: pullulanase (Streptococcus pyogenes), Q8KLP1 (protein)
# chain: MKKKVNQGSKRYQYLLKKWGIGFVIAATGTVMLGCIPSILTHQVAAKTIVGLARDEAQQGDGNAKSGDGFQSSSKEAKPVLDSSSANPASIAEHHLRMHFKTLPAGESLGSLGLWVWGDVDQPSKDWPNGAITMTKAKKDDYGYYLDVPLAAKHRQQVSYLINNKAGENLSKDQHIPLLTPKMNEVWIDENYHAHAYRPLKKGYLRINYHNQSGHYDNLAVWTFKDVKTPTTDWPNGLDLSHKGPYGAYVDVPLKEGANEIGFLILDKSKTGDAIKVQPKDYLFKELDNHTQVFVKDTDPKVYNNPYYIDQVSLKGAEQTTPNEIKAIFTTLDGLDEDAVKQNIKITDKAGKTVAIDELTLDKDKSVMTLKGDFKAQGAVYTVTFGEVSQVARQSWQLKDKLYAYDGELGATLAKDGSVDLALWSPSADSVKVVVYDKQDQTKVVGQADLTKSDKGVWRAHLTSDSVKGISDYTGYYYLYEITRGQEKVMVLDPYAKSLAAWNDATATDDIKTAKAAFIDPSKLGPTGLDFAKINNFKKREDAIIYEAHVRDFTSDKALEGKLTHPFGTFSAFVEQLDYLKDLGVTHVQLLPVLSYFYANELDKTRSTAYTSSDNNYNWGYDPQHYFALSGMYSANPNDPALRIAELKNLVNEIHKRGMGVIFDVVYNHTARTYLFEDLEPNYYHFMNADGTARESFGGGRLGTTHAMSRRILVDSITYLTREFKVDGFRFDMMGDHDAAAIEQAFKAAKAINPNTIMIGEGWRTYQGDEGKKEIAADQDWMKATNTVGVFSDDIRNTLKSGFPNEGTAAFITGGAKNLEGLFKTIKAQPSNFEADAPGDVVQYIAAHDNLTLHDVIAKSINKDPKVAEEEIHKRIRLGNTMILTAQGTAFIHSGQEYGRTKQLLNPDYKTKVSDDKVPNKATLIDAVAQYPYFIHDSYDSSDAVNHFDWAKATDSIAHPISNQTKAYTQGLIALRRSTDAFTKATKAEVDRDVTLITQAGQDGIQQEDLIMGYQTVASNGDRYAVFVNADNKTRKVVLPQAYRYLLGAQVLADAEQVGVTAIAKPKGVQFTKEGLTIDGLTALVLKVSSKTANPSQQKSQTDNHQTKTPDGSKDLDKSLMTRPKRAKTNQKLPKTGEAPSKGLLAAGVALLLLAISLLMKRQKD
# Columns and labels:
# Test in all cases: glycan array binding signal (z-score within array); higher = stronger binding
# Settings in all cases: glycan notation: IUPAC condensed, linker removed
# [1] = biological target: GlcNAc(b1-6)Gal(b1-4)GlcNAc
# Outline: (§1)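 Glycan array binding is given as a within-array Z-score, which can be read as non-binding when negative. The arrays, 3228 of them, came from the Consortium for Functional Glycomics database and were retained only where the protein sequence was available. Z-scores were averaged across arrays of the same protein sequence at different concentrations or buffers and across linkers.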
# GlcNAc(b1-6)GalNAc = biological target: GlcNAc(b1-6)GalNAc
# Outline: as §1
# GlcNAc3Prop(b1-4)GlcNAc = biological target: GlcNAc3Prop(b1-4)GlcNAc
# Outline: as §1
# [2] = biological target: GlcNAc6S(b1-3)Gal(b1-4)GlcNAc
# Outline: as §1
# Kdn(a2-3)Gal(b1-3)GalNAc = biological target: Kdn(a2-3)Gal(b1-3)GalNAc
# Outline: as §1
# Kdn(a2-3)Gal(b1-3)GlcNAc = biological target: Kdn(a2-3)Gal(b1-3)GlcNAc
# Outline: as §1
# Kdn(a2-3)Gal(b1-4)Glc = biological target: Kdn(a2-3)Gal(b1-4)Glc
# Outline: as §1
# Kdn(a2-3)Gal(b1-4)GlcNAc = biological target: Kdn(a2-3)Gal(b1-4)GlcNAc
# Outline: as §1
# [3] = biological target: Kdn(a2-3)Gal(b1-4)[Fuc(a1-3)]GlcNAc
# Outline: as §1
# Kdn(a2-6)Gal(b1-4)GlcNAc = biological target: Kdn(a2-6)Gal(b1-4)GlcNAc
# Outline: as §1
# [4] = biological target: Man(a1-2)Man(a1-2)Man(a1-3)Man
# Outline: as §1
# [5] = biological target: Man(a1-2)Man(a1-2)Man(a1-6)[Man(a1-3)]Man
# Outline: as §1
# Man(a1-2)Man(a1-3)Man = biological target: Man(a1-2)Man(a1-3)Man
# Outline: as §1
# [6] = biological target: Man(a1-2)Man(a1-3)[Man(a1-2)Man(a1-6)]Man
# Outline: as §1
# [7] = biological target: Man(a1-2)Man(a1-3)[Man(a1-2)Man(a1-6)]Man(a1-6)[Man(a1-2)Man(a1-2)Man(a1-3)]Man
# Outline: as §1
# [8] = biological target: Man(a1-2)Man(a1-3)[Man(a1-2)Man(a1-6)]Man(a1-6)[Man(a1-2)Man(a1-2)Man(a1-3)]Man(b1-4)GlcNAc(b1-4)GlcNAc
# Outline: as §1
# [9] = biological target: Man(a1-2)Man(a1-3)[Man(a1-6)]Man(a1-6)[Man(a1-2)Man(a1-3)]Man(b1-4)GlcNAc(b1-4)GlcNAc
# Outline: as §1
# [10] = biological target: Man(a1-2)Man(a1-6)[Man(a1-3)]Man(a1-6)[Man(a1-2)Man(a1-2)Man(a1-3)]Man
# Outline: as §1
# [11] = biological target: Man(a1-2)Man(a1-6)[Man(a1-3)]Man(a1-6)[Man(a1-2)Man(a1-2)Man(a1-3)]Man(b1-4)GlcNAc(b1-4)GlcNAc
# Outline: as §1
# Man(a1-3)[Man(a1-6)]Man = biological target: Man(a1-3)[Man(a1-6)]Man
# Outline: as §1
# [12] = biological target: Man(a1-3)[Man(a1-6)]Man(a1-6)[Man(a1-2)Man(a1-3)]Man(b1-4)GlcNAc(b1-4)GlcNAc
# Outline: as §1
# [13] = biological target: Man(a1-3)[Man(a1-6)]Man(a1-6)[Man(a1-3)]Man
# Outline: as §1
binder,measurement,setting,value
B1,glycan array binding signal (z-score),[1],-0.363
same,glycan array binding signal (z-score),GlcNAc(b1-6)GalNAc,-0.087
same,glycan array binding signal (z-score),GlcNAc3Prop(b1-4)GlcNAc,-1
same,glycan array binding signal (z-score),[2],1.42
same,glycan array binding signal (z-score),Kdn(a2-3)Gal(b1-3)GalNAc,1.42
same,glycan array binding signal (z-score),Kdn(a2-3)Gal(b1-3)GlcNAc,-0.039
same,glycan array binding signal (z-score),Kdn(a2-3)Gal(b1-4)Glc,-0.746
same,glycan array binding signal (z-score),Kdn(a2-3)Gal(b1-4)GlcNAc,0.846
same,glycan array binding signal (z-score),[3],-0.816
same,glycan array binding signal (z-score),Kdn(a2-6)Gal(b1-4)GlcNAc,-0.07
same,glycan array binding signal (z-score),[4],0.552
same,glycan array binding signal (z-score),[5],1
same,glycan array binding signal (z-score),Man(a1-2)Man(a1-3)Man,-0.328
same,glycan array binding signal (z-score),[6],0.757
same,glycan array binding signal (z-score),[7],0.204
same,glycan array binding signal (z-score),[8],0.012
same,glycan array binding signal (z-score),[9],1.31
same,glycan array binding signal (z-score),[10],0.731
same,glycan array binding signal (z-score),[11],0.634
same,glycan array binding signal (z-score),Man(a1-3)[Man(a1-6)]Man,-0.085
same,glycan array binding signal (z-score),[12],0.619
same,glycan array binding signal (z-score),[13],0.007

# Two records picked at random from those above:
binder,measurement,setting,value
B1,glycan array binding signal (z-score),Kdn(a2-3)Gal(b1-3)GalNAc,1.42
same,glycan array binding signal (z-score),GlcNAc3Prop(b1-4)GlcNAc,-1
